In patent US6384030B1, “Water soluble azoles as broad-spectrum antifungals” (priority 1998, dated 2002):
Some results were stated once for a whole list of compounds, not compound by compound. For at least one compound, name, drawing or mass did not settle the structure.

assay: Water solubility (example D1); assay type: physicochemical; conditions: water buffered with 0.1 M citric acid and 0.2 M Na2HPO4 (pH =4); shaken 1 day at room temperature; UV

solubility, more than 0.1 mg/ml:
CC(NC(C)C(C)n1ncn(-c2ccc(N3CCN(c4ccc(OCC5COC(Cn6cncn6)(c6ccc(F)cc6F)O5)cc4)CC3)cc2)c1=O)c1ccccc1 (centres unmarked) [Compound 83]
CC([C@H](C)NCc1ccccc1)N(C)C(=O)Nc1ccc(N2CCN(c3ccc(OC[C@H]4CO[C@](Cn5cncn5)(c5ccc(F)cc5F)O4)cc3)CC2)cc1 (relative stereo) [Compound 198]
CC(C)OC(C)C.CC(NC1CCNCC1)C(C)n1ncn(-c2ccc(N3CCN(c4ccc(OCC5COC(Cn6cncn6)(c6ccc(F)cc6F)O5)cc4)CC3)cc2)c1=O (stereo not drawn) [Compound 63, [2S-[2α,4α(R*,S*)]]-4-[4-[4-[4-[[2-(2,4-difluorophenyl)-2-(1H-1,2,4-triazol-1-ylmethyl)-1,3-dioxolan-4-yl]methoxy]phenyl]-1-piperazinyl]phenyl]-2,4-dihydro-2-[2-(4-piperidinylamino)-1-methylpropyl]-3H-1,2,4-triazol-3-one diisopropylether(1:1)]
CC(NCc1ccccc1)C(C)n1ncn(-c2ccc(N3CCN(c4ccc(OCC5COC(Cn6cncn6)(c6ccc(F)cc6F)O5)cc4)CC3)cc2)c1=O (stereo not drawn) [Compound 106, [2S-[2α,4α(S*,R*)]]-4-[4-[4-[4-[[2-(2,4-difluorophenyl)-2-(1H-1,2,4-triazol-1-yl-methyl)-1,3-dioxolan-4-yl]methoxy]phenyl]-1-piperazinyl]phenyl]-2,4-dihydro-2-[2-[(phenylmethyl)amino]-1-methylpropyl]-3H-1,2,4-triazol-3-one]
CC(N)C(C)n1ncn(-c2ccc(N3CCN(c4ccc(OCC5COC(Cn6cncn6)(c6ccc(F)cc6F)O5)cc4)CC3)cc2)c1=O (single isomer, unassigned) [Compound 38]
CC(NCCc1ccccc1)C(C)n1ncn(-c2ccc(N3CCN(c4ccc(OCC5COC(Cn6cncn6)(c6ccc(F)cc6F)O5)cc4)CC3)cc2)c1=O (centres unmarked) [Compound 74]
CC(NC(C)C(C)N1CCN(c2ccc(N3CCN(c4ccc(OCC5COC(Cn6cncn6)(c6ccc(F)cc6F)O5)cc4)CC3)cc2)C1=O)c1ccccc1 (single isomer, unassigned) [Compound 193]
COc1ccccc1CNC(C)C(C)n1ncn(-c2ccc(N3CCN(c4ccc(OCC5COC(Cn6cncn6)(c6ccc(F)cc6F)O5)cc4)CC3)cc2)c1=O (centres unmarked) [Compound 107]
CC(NCC(N)Cc1ccccc1)C(C)n1ncn(-c2ccc(N3CCN(c4ccc(OCC5COC(Cn6cncn6)(c6ccc(F)cc6F)O5)cc4)CC3)cc2)c1=O (centres unmarked) [Compound 142]
CC(C(C)n1ncn(-c2ccc(N3CCN(c4ccc(OCC5COC(Cn6cncn6)(c6ccc(F)cc6F)O5)cc4)CC3)cc2)c1=O)N1CCN(C)CC1 (single isomer, unassigned) [Compound 21]
CC(NCc1ccccc1F)C(C)n1ncn(-c2ccc(N3CCN(c4ccc(OCC5COC(Cn6cncn6)(c6ccc(F)cc6F)O5)cc4)CC3)cc2)c1=O (centres unmarked) [Compound 93]
CC(NC(C)C(C)n1ncn(-c2ccc(N3CCN(c4ccc(OCC5COC(Cn6cncn6)(c6ccc(F)cc6F)O5)cc4)CC3)cc2)c1=O)c1ccccc1.Cl (centres unmarked) [Compound 85]
CC(NC1CCOc2ccccc21)C(C)n1ncn(-c2ccc(N3CCN(c4ccc(OCC5COC(Cn6cncn6)(c6ccc(F)cc6F)O5)cc4)CC3)cc2)c1=O (single isomer, unassigned) [Compound 147]
CC(C(C)n1ncn(-c2ccc(N3CCN(c4ccc(OCC5COC(Cn6cncn6)(c6ccc(F)cc6F)O5)cc4)CC3)cc2)c1=O)N(C)CCCN(C)C (single isomer, unassigned) [Compound 66]
CC(NCCO)C(C)n1ncn(-c2ccc(N3CCN(c4ccc(OCC5COC(Cn6cncn6)(c6ccc(F)cc6F)O5)cc4)CC3)cc2)c1=O (centres unmarked) [Compound 51]
CC(NCCOc1ccccc1)C(C)n1ncn(-c2ccc(N3CCN(c4ccc(OCC5COC(Cn6cncn6)(c6ccc(F)cc6F)O5)cc4)CC3)cc2)c1=O (centres unmarked) [Compound 52]
CC(NC1CCCc2ccccc21)C(C)n1ncn(-c2ccc(N3CCN(c4ccc(OCC5COC(Cn6cncn6)(c6ccc(F)cc6F)O5)cc4)CC3)cc2)c1=O (single isomer, unassigned) [Compound 143]
CC(NCCn1ncn(-c2ccc(N3CCN(c4ccc(OCC5COC(Cn6cncn6)(c6ccc(F)cc6F)O5)cc4)CC3)cc2)c1=O)c1ccccc1 (centres unmarked) [Compound 114]
CC(NCCCNCc1ccccc1)C(C)n1ncn(-c2ccc(N3CCN(c4ccc(OCC5COC(Cn6cncn6)(c6ccc(F)cc6F)O5)cc4)CC3)cc2)c1=O (centres unmarked) [Compound 68]
CNC(C)C(C)n1ncn(-c2ccc(N3CCN(c4ccc(OCC5COC(Cn6cncn6)(c6ccc(F)cc6F)O5)cc4)CC3)cc2)c1=O (centres unmarked) [Compound 42]
CC(NC(C)C(C)NC(=O)Nc1ccc(N2CCN(c3ccc(OCC4COC(Cn5cncn5)(c5ccc(F)cc5F)O4)cc3)CC2)cc1)c1ccccc1.Cl.Cl.Cl.O (stereo not drawn) [Compound 197, [2S-[2α,4α[2(1R*)]]]-N-[4-[4-[4-[[2-(2,4-difluorophenyl)-2-(1H-1,2,4-triazol-1-ylmethyl)-1,3-dioxolan-4-yl]methoxy]phenyl]-1-piperazinyl]phenyl]-N′-[1-methyl-2-[(1-phenylethyl)amino]propyl]urea trihydrochloride monohydrate]
CC(NC1Cc2ccccc2C1)C(C)n1ncn(-c2ccc(N3CCN(c4ccc(OCC5COC(Cn6cncn6)(c6ccc(F)cc6F)O5)cc4)CC3)cc2)c1=O (centres unmarked) [Compound 55]
CC(NC(CO)c1ccccc1)C(C)n1ncn(-c2ccc(N3CCN(c4ccc(OCC5COC(Cn6cncn6)(c6ccc(F)cc6F)O5)cc4)CC3)cc2)c1=O (centres unmarked) [Compound 109]
CC(NCC(O)c1ccccc1)C(C)n1ncn(-c2ccc(N3CCN(c4ccc(OCC5COC(Cn6cncn6)(c6ccc(F)cc6F)O5)cc4)CC3)cc2)c1=O (stereo not drawn) [Compound 81, [2S-[2α,4α[(S*,R*)(R*)]]]4-[4-[4-[4-[[2-(2,4-difluorophenyl)-2-(1H-1,2,4-triazol-1-ylmethyl)-1,3-dioxolan-4-yl]methoxy]phenyl]-1-piperazinyl]phenyl]-2,4-dihydro-2-[2[(2-hydroxy-2-phenylethyl)amino]-1-methylpropyl]-3H-1,2,4-triazol-3-one]
O=c1n(-c2ccc(N3CCN(c4ccc(OCC5COC(Cn6cncn6)(c6ccc(F)cc6F)O5)cc4)CC3)cc2)cnn1C1CCC(NCc2ccccc2)CC1 (centres unmarked) [Compound 203]
CC(NCCN(C)C)C(C)n1ncn(-c2ccc(N3CCN(c4ccc(OCC5COC(Cn6cncn6)(c6ccc(F)cc6F)O5)cc4)CC3)cc2)c1=O (centres unmarked) [Compound 65]
CC(NC(CN(C)C)c1ccccc1)C(C)n1ncn(-c2ccc(N3CCN(c4ccc(OCC5COC(Cn6cncn6)(c6ccc(F)cc6F)O5)cc4)CC3)cc2)c1=O (stereo not drawn) [Compound 172, [2S-[2alpha,4alpha[(S*,R*)(S*)]]]-4-[4-[4-[4-[[2-(2,4-difluorophenyl)-2-(1H-1,2,4-triazol-1-ylmethyl)-1,3-dioxolan-4-yl]methoxy]phenyl]-1-piperazinyl]phenyl]-4-[2-[[2-(dimethylamino)-1-phenylethyl]amino]-1-methylpropyl]-2,4-dihydro-3H-1,2,4-triazol-3-one]
CC(C)C(CO)NC(C)C(C)n1ncn(-c2ccc(N3CCN(c4ccc(OCC5COC(Cn6cncn6)(c6ccc(F)cc6F)O5)cc4)CC3)cc2)c1=O (mixture of isomers) [Compound 71]
CC(NCC1CCCO1)C(C)n1ncn(-c2ccc(N3CCN(c4ccc(OCC5COC(Cn6cncn6)(c6ccc(F)cc6F)O5)cc4)CC3)cc2)c1=O (centres unmarked) [Compound 49]
